These are yes or no findings as the source states them, for the method shown. In cells and extracts the contact can be indirect. Some entries that bind do so weakly or less than the wild type.
Molecular target: T1, IL receptor 20 subunit β (IL-20RB) (not stated (human or mouse cDNA cloned)) (UniProt Q6UXL0)
T1 sequence: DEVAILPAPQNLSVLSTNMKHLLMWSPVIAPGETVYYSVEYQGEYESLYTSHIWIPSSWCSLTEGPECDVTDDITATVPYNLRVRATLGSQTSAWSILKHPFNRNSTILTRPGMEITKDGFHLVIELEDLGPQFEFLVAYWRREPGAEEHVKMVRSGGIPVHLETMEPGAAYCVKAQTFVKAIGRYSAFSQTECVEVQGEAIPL
Test: co-IP; cell lysate supernatant incubated with control IgG or primary antibody overnight in IP buffer (150 mM NaCl, 20 mM HEPES pH 7.4, 1% Triton X-100), protein A/G beads 2 h at 4°C, Western blotting; with the antibody LTMA1G11 as blocker; the set-up of Supplemental Figure 9C itself is not shown

binding: binds
B1: IL-19 (ligand, UniProt Q9UHD0 25-177)
chain: LRRCLISTDMHHIEESFQEIKRAIQAKDTFPNVTILSTLETLQIIKPLDVCCVTKNLLAFYVDRVFKDHQEPNPKILRKISSIANSFLYMQKTLRQCQEQRQCHCRQEATNATRVIHDNYDQLEVHAAAIKSLGELDVFLAWINKNHEVMFSA
